Reference: PubChem BioAssay AID504467 (National Center for Advancing Translational Sciences (NCATS), 2011)
The campaign covered roughly 330,000 compounds. About 7,700 (2.3%) were called active. Inconclusive results, whose numbers are uncertain, are shown with a selection of clear calls. Calls come from the whole dose curve; as a rule, active = well fitted inhibition curve with a large enough effect; inconclusive = small, poorly fitted or top-dose-only effect, or effect the other way; inactive = flat fitted curve, though single readings scatter. Potencies beside an inconclusive call are fits to weak or partial responses and may not hold up.

Experiment: qHTS screen for small molecules that inhibit ELG1-dependent DNA repair in human embryonic kidney (HEK293T) cells expressing luciferase-tagged ELG1; note: nearly all actives have a fitted effect of over 55% in size
Details: HEK293T ELG1-luciferase reporter, luminescence, 16 h, DNA damage induced by 5-fluorouridine; series mostly up to 46.1 µM
Method in brief: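 Quantitative HTS, concentration-response format. 2,000 cells/well co-treated with 5-fluorouridine and compound, 16 hr in 5% CO2 at 37 °C; ONE-Glo luminescence read after 30 min.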
Potency is the fitted concentration of half-maximal effect.

Structure (SMILES) | Potency
CCOC(=O)c1sc(N2N=C(C)C(N=Nc3cccc(C)c3)C2=O)nc1C (stereo not given) | inactive
Cc1ccc(CNC(=O)CCNC(=O)c2ccco2)cc1 | inconclusive: 20.6 µM [activator, partial curve, poor fit]
COc1ccccc1C(=O)Nc1nnc(-c2ccc3c(c2)CCCC3)o1 | inactive
COc1cc(NC(=O)Nc2ccccc2)c(OC)cc1NC(=O)CN1CCCCC1 | inactive
O=S(=O)(NCC(Nc1ccc(Cl)cc1)c1ccccc1)c1ccccc1 (stereo not given) | inactive
C/C(=C\c1cc2ccccc2o1)C1Nc2cccc3cccc(c23)N1 | inactive
COC(=O)/C=C/COc1ccccc1[N+](=O)[O-] | inconclusive: 23.1 µM [activator, single point]
COc1cc(/C=N/NC(=O)c2cc(-c3ccccc3)sc2N)cc(OC)c1OC | active: 23.1 µM
CC(C)Cn1c(-c2cc([N+](=O)[O-])ccc2Cl)nc2c1c(=O)[nH]c(=O)n2Cc1ccccc1 | inconclusive: 25.9 µM [inhibitor, partial curve, poor fit]
COc1cc(C(C(=O)NC2CCCCC2)N(C(=O)c2snc(C(N)=O)c2N)c2ccc(C)cc2)ccc1O (stereo not given) | inconclusive: 29.1 µM [inhibitor, single point]
Cc1noc(C)c1CSCC(=O)Nc1nc(-c2ccc(F)c(F)c2)cs1 | inconclusive: 25.9 µM [inhibitor, single point]
O=C(c1ccccc1)c1cnc(Nc2ccccc2Cl)s1 | inconclusive: 2.91 µM [activator, full curve]
C=CCNC(=O)c1nc2ccccc2s1 | inconclusive: 20.6 µM [activator, single point]
CC(=O)c1cnc(N(C)C)s1 | inactive
O=C(CSc1nnc(-c2ccccc2Cl)o1)Nc1ccc2c(c1)OCCO2 | inconclusive: 20.6 µM [activator, partial curve]
CCOc1ccc(-c2cc(NC(=O)c3c(F)cccc3F)c(C(=O)O)s2)cc1 | inactive
O=C(Nc1ncccc1O)c1ccc(C(=O)c2ccccc2)cc1 | inconclusive: 18.3 µM [activator, partial curve]
COc1ccc(-n2ncc3c2CC(C)(C)CC3NC(=O)c2ccnn2C)cc1 (stereo not given) | inactive
Cc1ccc(S(=O)(=O)N(C)C)cc1NC(=O)COC(=O)c1ccc2c(c1)NC(=O)CS2 | inconclusive: 6.51 µM [inhibitor, partial curve]
Cc1ccc(Sc2ccc(S(=O)(=O)Nc3ccc(CC(=O)O)cc3)cc2)cc1C | inactive
CC(C)(C)C(=O)Nc1cc(C(F)(F)F)ccc1N1CCOCC1 | inconclusive: 7.31 µM [activator, full curve, poor fit]
Cc1cc(SCC(=O)c2ccc(Cl)cc2)nc(=O)[nH]1 | inconclusive: 6.51 µM [activator, partial curve]
COc1ccc(NC(=O)OC(C)C)cc1 | inconclusive: 14.6 µM [activator, partial curve]
CC(C)c1ccc(OCC(=O)NC2=NCCS2)cc1 | inconclusive: 29.1 µM [activator, single point]

Structure (SMILES) | Potency
O=C(NC(=S)NCc1cccnc1)c1cc2ccccc2o1 | inactive
COc1cccc(C(=O)Nc2cccc(-c3nc4ncccc4o3)c2C)c1 | inconclusive: 29.1 µM [inhibitor, single point]
CC(=O)N(/N=C1\Sc2ccccc2C1=O)c1ccccc1 | inconclusive: 3.26 µM [activator, full curve]
CCN(CC)CCn1c2c(c(SCC(=O)Nc3nc4ccccc4s3)nc1=O)CCCC2 | inconclusive: 29.1 µM [inhibitor, single point]
CCCCCCCCCn1c2c(c(=N)c3c1CCC3)CCC2 | inconclusive: 1.84 µM [inhibitor, full curve]
O=C(Cn1c(SCC(=O)N2CCc3ccccc32)nc2ccccc21)NC1CCCC1 | inconclusive: 29.1 µM [activator, partial curve, poor fit]
Cc1ccc2c(CC(=O)NCc3ccco3)coc2c1C | inconclusive: 29.1 µM [activator, single point]
Cc1ccc(S(=O)(=O)N(C)C)cc1NC(=O)COC(=O)/C=C/c1cnc2ccccc2n1 | inactive
O=C(Nc1ccon1)c1ccc(Br)s1 | inactive
O=S(=O)(NCCC1=CCCCC1)c1cccc2nsnc12 | inconclusive: 18.4 µM [inhibitor, single point]
O=C(NC(=O)c1ccccc1O)c1ccc(C(F)(F)F)cc1 | inconclusive: 23.1 µM [activator, partial curve]
CC1(C)CC(=O)C2=C(C1)c1c(ccc3ccccc13)NC2c1ccc(Br)o1 (stereo not given) | inconclusive: 20.6 µM [inhibitor, single point]
CC[n+]1c(/C=C/c2ccc(OC(C)=O)c(OC)c2)ccc2ccccc21 | inconclusive: 29.1 µM [activator, single point]
O=C(NCc1ccccc1)c1ncn(Cc2ccccc2)c1C(=O)NCc1ccccc1 | inconclusive: 29.1 µM [inhibitor, single point]
O=[N+]([O-])c1ccc(S(=O)(=O)NNC(=S)NCCc2ccccc2)cc1 | inconclusive: 29.1 µM [activator, single point]
COc1ccc2nc(/C(C#N)=C\c3ccc(Oc4ccc([N+](=O)[O-])cn4)cc3)[nH]c2c1 | inactive
Cc1ccc(-c2cn(-c3ccccc3F)c(=S)[nH]2)cc1 | inconclusive: 13 µM [activator, partial curve]
Cc1ccc(C(=O)Nc2ccccc2C(=O)NC(C(=O)O)C(C)C)cc1 (stereo not given) | inconclusive: 20.6 µM [activator, partial curve]
O=C(COC(=O)c1cccnc1Cl)NC1CCCCC1 | inconclusive: 3.66 µM [activator, partial curve]
Cc1ccc(-c2csc(NC(=O)CSc3nc4ccccc4c(=O)n3CCCN(C)C)n2)cc1 | inconclusive: 16.4 µM [activator, partial curve]
COCCCNC(=O)C[C@H]1C[C@H](C(=O)N2CCOCC2)[C@@]2(CCC3CCCC3)c3[nH]c4cc(CCC(=O)N(C)C)ccc4c3CCN2C1=O | inconclusive: 25.9 µM [activator, partial curve, poor fit]
OC1(c2cccc(C(F)(F)F)c2)CCN(c2ncnc3c2[nH]c2ccccc23)CC1 | inactive
CC1Cc2ccccc2N1Cc1cc(=O)c(OCC(=O)Nc2ccccc2)co1 (stereo not given) | inconclusive: 4.11 µM [inhibitor, partial curve, poor fit]
COCCCNc1nc2c(c(=O)n(Cc3cccc(Br)c3)c(=O)n2C)n1C | inconclusive: 29.1 µM [inhibitor, single point]

Structure (SMILES) | Potency
CCCOc1ccc(C(=O)Nc2nc(C)c(Cc3ccc4c(c3)OCO4)s2)cc1 | inconclusive: 29.1 µM [activator, single point]
O=C(NC(=S)Nc1ccccc1N1CCOCC1)c1ccccc1F | inactive
CCCn1c(C(C)NC(C)=O)nc2ccccc21 (stereo not given) | inactive
Cn1c(N)c(C(=O)c2ccc(Cl)c(S(=O)(=O)N3CCCCCC3)c2)c(=O)n(C)c1=O | inconclusive: 20.6 µM [inhibitor, single point]
CC(OC(=O)c1ccccc1NS(=O)(=O)c1cccc(C(F)(F)F)c1)C(=O)N(C)Cc1ccccc1 (stereo not given) | inactive
COc1ccc2nc(C)cc(SCC(=O)N/N=C/c3ccccc3)c2c1 | inactive
COc1cc(/C=C/c2[nH]c(=O)[nH]c(=O)c2[N+](=O)[O-])cc([N+](=O)[O-])c1O | inactive
CC(C)(C)NC(=O)Cn1c(SCC(=O)NCc2cccs2)nc2ccccc21 | inconclusive: 16.4 µM [activator, partial curve, poor fit]
Cc1ccccc1CCNC(=O)c1ccc(Cl)c(S(=O)(=O)N2CC(C)OC(C)C2)c1 (stereo not given) | inconclusive: 10.3 µM [inhibitor, partial curve, poor fit]
Cc1ccc(-c2nnc3sc(CCc4ccccc4)nn23)cc1 | inconclusive: 11.2 µM [activator, single point]
CN(Cc1cccc(C(F)(F)F)c1)Cc1nc(-c2cnccn2)no1 | inactive
O=c1[nH]c(SCc2cccc(F)c2)nc2ccccc12 | inconclusive: 18.3 µM [activator, single point]
COC(=O)c1cc(C(=O)OCC(=O)NCc2cccs2)cc([N+](=O)[O-])c1 | inactive
COc1ccccc1N(CC(=O)NCCSCc1cccc(Cl)c1)S(C)(=O)=O | inactive
COc1ccc(-c2cc3cc(OC)c(OC)cc3c(C)n2)cc1C | inactive
O=C(c1ccccc1)N1CCC(=O)N1c1ccccc1 | inactive
CCC(C)c1ccc(NC(=O)c2c([N+](=O)[O-])cnn2CC)cc1 (stereo not given) | inconclusive: 29.1 µM [inhibitor, single point]
COc1ccc(C)cc1NC(=O)COC(=O)c1ccccc1SCC(=O)N1CCCC1 | inconclusive: 25.9 µM [inhibitor, partial curve, poor fit]
COC(=O)C1=C(C)N(Cc2ccccc2)C(=NCc2cc(OC)c(OC)c(OC)c2)N[C@H]1c1cccc(F)c1 | inconclusive: 32.6 µM [inhibitor, single point]
Cc1sc(NC(=O)CN2CCOCC2)nc1-c1ccc2c(c1)CCN2S(=O)(=O)c1ccccc1 | inconclusive: 8.2 µM [inhibitor, partial curve]
COc1ccc(CNc2ccc(N3CCOCC3)cc2)cc1 | inconclusive: 29.1 µM [activator, single point]
CCn1ncc(/C=C/C(=O)c2ccccc2)c1C | inconclusive: 32.6 µM [activator, partial curve, poor fit]

Part of the list above in order of molecular weight, rising:
Structure (SMILES) | Potency
COc1ccc(NC(=O)OC(C)C)cc1 | inconclusive: 14.6 µM [activator, partial curve]
CCn1ncc(/C=C/C(=O)c2ccccc2)c1C | inconclusive: 32.6 µM [activator, partial curve, poor fit]
O=C(Nc1ccon1)c1ccc(Br)s1 | inactive
O=c1[nH]c(SCc2cccc(F)c2)nc2ccccc12 | inconclusive: 18.3 µM [activator, single point]
Cc1cc(SCC(=O)c2ccc(Cl)cc2)nc(=O)[nH]1 | inconclusive: 6.51 µM [activator, partial curve]
CC(=O)N(/N=C1\Sc2ccccc2C1=O)c1ccccc1 | inconclusive: 3.26 µM [activator, full curve]
O=C(c1ccccc1)c1cnc(Nc2ccccc2Cl)s1 | inconclusive: 2.91 µM [activator, full curve]
CC(C)(C)C(=O)Nc1cc(C(F)(F)F)ccc1N1CCOCC1 | inconclusive: 7.31 µM [activator, full curve, poor fit]
Cc1ccc(C(=O)Nc2ccccc2C(=O)NC(C(=O)O)C(C)C)cc1 (stereo not given) | inconclusive: 20.6 µM [activator, partial curve]
O=C(CSc1nnc(-c2ccccc2Cl)o1)Nc1ccc2c(c1)OCCO2 | inconclusive: 20.6 µM [activator, partial curve]
CCCOc1ccc(C(=O)Nc2nc(C)c(Cc3ccc4c(c3)OCO4)s2)cc1 | inconclusive: 29.1 µM [activator, single point]
COc1cc(NC(=O)Nc2ccccc2)c(OC)cc1NC(=O)CN1CCCCC1 | inactive
O=C(Cn1c(SCC(=O)N2CCc3ccccc32)nc2ccccc21)NC1CCCC1 | inconclusive: 29.1 µM [activator, partial curve, poor fit]
COCCCNc1nc2c(c(=O)n(Cc3cccc(Br)c3)c(=O)n2C)n1C | inconclusive: 29.1 µM [inhibitor, single point]
COc1ccc(C)cc1NC(=O)COC(=O)c1ccccc1SCC(=O)N1CCCC1 | inconclusive: 25.9 µM [inhibitor, partial curve, poor fit]
Cc1ccc(S(=O)(=O)N(C)C)cc1NC(=O)COC(=O)/C=C/c1cnc2ccccc2n1 | inactive
Cc1ccc(S(=O)(=O)N(C)C)cc1NC(=O)COC(=O)c1ccc2c(c1)NC(=O)CS2 | inconclusive: 6.51 µM [inhibitor, partial curve]
CCN(CC)CCn1c2c(c(SCC(=O)Nc3nc4ccccc4s3)nc1=O)CCCC2 | inconclusive: 29.1 µM [inhibitor, single point]
CC(OC(=O)c1ccccc1NS(=O)(=O)c1cccc(C(F)(F)F)c1)C(=O)N(C)Cc1ccccc1 (stereo not given) | inactive
